The other results are listed elsewhere or left out. The calls rarely recur for the same compound in another form.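 In K562 cells expressing nanoluciferase-fused kinases, luminescence was recorded at 4 h intervals between 2 and 18 h, normalized as percent of control with DMSO at 100% and a positive control at 0%. A significant (2 sigma) signal drop marks a time point as decreased. The authors' rule for a hit is not shown and takes in more than the number of time points.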
Legend:
Assay in all cases: kinase-Nluc reporter destabilization hit call (1 = scored as downregulated) (binary); higher = compound decreases kinase abundance
Details in all cases: K562; 2-18 h
[1] = target: ERN1 (UniProt O75460)
[2] = target: FGFR1 (UniProt P11362)
[3] = target: FGFR2 (UniProt P21802)
[4] = target: FGFR3 (UniProt P22607)
[5] = target: FGR (UniProt P09769)
[6] = target: FLT3 (UniProt P36888)
[7] = target: FYN (UniProt P06241)
[8] = target: GSK3A (UniProt P49840)
[9] = target: HER2 (UniProt P04626)
[10] = target: INSRR (UniProt P14616)
[11] = target: IRAK3 (UniProt Q9Y616)
[12] = target: JAK1 (UniProt P23458)
[13] = target: LCK (UniProt P06239)
[14] = target: LIMK1 (UniProt P53667)
[15] = target: LIMK2 (UniProt P53671)
[16] = target: LMTK2 (UniProt Q8IWU2)
[17] = target: LYN (UniProt P07948)
[18] = target: MAP2K1 (UniProt Q02750)
[19] = target: MAP2K2 (UniProt P36507)
[20] = target: MAP4K2 (UniProt Q12851)

Chains of the proteins cited; added tags and fusions are not shown. Lines headed by an entry give the natural chain unless they say otherwise; changes in a name come on top.
UniProt O75460: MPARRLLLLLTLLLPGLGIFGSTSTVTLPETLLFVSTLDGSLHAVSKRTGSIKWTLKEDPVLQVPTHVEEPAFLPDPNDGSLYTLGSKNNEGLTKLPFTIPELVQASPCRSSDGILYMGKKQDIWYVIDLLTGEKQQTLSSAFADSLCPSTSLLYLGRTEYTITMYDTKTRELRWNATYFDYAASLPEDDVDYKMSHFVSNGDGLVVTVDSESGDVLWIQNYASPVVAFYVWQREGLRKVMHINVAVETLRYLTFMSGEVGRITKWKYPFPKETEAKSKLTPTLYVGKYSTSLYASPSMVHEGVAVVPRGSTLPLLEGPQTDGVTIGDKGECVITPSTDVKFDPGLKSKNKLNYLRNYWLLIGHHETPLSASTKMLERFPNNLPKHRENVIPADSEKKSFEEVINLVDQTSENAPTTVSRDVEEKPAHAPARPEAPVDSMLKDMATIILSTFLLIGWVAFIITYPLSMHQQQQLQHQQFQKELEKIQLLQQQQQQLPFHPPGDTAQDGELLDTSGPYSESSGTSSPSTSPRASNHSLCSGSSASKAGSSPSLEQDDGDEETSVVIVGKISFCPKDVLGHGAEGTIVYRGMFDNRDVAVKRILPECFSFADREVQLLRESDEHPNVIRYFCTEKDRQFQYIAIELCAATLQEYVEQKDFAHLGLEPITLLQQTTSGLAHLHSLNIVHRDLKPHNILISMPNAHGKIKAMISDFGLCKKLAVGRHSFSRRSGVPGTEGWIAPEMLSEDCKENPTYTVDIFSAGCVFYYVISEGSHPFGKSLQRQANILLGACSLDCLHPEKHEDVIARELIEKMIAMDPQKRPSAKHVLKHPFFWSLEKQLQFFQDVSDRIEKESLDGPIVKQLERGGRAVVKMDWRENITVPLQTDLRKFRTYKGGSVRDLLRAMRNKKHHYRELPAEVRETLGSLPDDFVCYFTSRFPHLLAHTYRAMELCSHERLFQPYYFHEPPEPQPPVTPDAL
UniProt P11362, whole entry, looked up: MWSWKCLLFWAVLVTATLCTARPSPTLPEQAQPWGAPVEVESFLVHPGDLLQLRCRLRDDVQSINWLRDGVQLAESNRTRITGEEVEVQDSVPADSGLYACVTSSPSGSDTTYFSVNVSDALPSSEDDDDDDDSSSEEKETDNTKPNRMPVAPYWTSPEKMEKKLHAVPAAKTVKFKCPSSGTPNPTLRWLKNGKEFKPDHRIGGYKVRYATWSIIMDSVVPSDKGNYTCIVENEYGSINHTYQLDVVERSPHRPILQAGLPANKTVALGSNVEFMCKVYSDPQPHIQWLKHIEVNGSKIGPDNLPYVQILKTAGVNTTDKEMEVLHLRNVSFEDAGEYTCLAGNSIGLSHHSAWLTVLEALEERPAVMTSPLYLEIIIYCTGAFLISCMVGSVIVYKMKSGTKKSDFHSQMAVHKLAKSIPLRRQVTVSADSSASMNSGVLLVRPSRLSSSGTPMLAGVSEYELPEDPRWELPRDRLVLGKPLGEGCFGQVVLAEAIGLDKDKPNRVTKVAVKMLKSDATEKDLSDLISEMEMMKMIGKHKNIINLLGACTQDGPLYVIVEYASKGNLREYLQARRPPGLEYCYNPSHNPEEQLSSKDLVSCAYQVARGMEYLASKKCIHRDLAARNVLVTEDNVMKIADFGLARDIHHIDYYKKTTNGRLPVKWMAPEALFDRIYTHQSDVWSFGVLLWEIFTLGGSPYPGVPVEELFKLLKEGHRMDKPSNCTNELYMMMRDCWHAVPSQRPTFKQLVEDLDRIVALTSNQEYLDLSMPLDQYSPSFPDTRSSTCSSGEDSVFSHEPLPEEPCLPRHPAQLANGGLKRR
UniProt P06241, whole entry, looked up: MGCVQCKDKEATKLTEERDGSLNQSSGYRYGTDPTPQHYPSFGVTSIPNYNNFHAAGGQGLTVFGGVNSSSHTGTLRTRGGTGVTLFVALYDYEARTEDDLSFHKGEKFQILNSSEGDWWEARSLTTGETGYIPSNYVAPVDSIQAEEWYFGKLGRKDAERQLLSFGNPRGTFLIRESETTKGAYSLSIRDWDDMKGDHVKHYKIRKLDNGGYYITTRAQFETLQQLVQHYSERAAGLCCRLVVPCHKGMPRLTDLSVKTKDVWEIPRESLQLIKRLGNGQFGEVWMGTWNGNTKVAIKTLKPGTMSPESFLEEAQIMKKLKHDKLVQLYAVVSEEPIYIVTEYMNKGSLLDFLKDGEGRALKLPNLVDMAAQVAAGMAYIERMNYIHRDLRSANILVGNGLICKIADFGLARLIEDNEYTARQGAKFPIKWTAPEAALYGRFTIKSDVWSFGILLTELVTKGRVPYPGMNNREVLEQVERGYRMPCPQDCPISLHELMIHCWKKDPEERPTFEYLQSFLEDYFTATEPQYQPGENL
UniProt P49840: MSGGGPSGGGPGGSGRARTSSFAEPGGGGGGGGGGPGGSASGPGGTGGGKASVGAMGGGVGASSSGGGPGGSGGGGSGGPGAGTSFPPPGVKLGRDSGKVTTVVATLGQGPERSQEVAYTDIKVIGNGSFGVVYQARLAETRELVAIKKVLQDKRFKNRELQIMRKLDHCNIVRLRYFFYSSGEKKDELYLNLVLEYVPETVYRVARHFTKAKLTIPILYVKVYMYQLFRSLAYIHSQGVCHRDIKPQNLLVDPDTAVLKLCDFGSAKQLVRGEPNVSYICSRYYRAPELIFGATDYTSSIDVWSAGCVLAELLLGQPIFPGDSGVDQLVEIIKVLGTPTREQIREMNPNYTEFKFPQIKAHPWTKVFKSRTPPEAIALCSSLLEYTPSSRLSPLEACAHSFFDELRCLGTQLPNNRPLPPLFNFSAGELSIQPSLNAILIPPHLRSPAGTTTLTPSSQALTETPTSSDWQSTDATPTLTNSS
UniProt P14616: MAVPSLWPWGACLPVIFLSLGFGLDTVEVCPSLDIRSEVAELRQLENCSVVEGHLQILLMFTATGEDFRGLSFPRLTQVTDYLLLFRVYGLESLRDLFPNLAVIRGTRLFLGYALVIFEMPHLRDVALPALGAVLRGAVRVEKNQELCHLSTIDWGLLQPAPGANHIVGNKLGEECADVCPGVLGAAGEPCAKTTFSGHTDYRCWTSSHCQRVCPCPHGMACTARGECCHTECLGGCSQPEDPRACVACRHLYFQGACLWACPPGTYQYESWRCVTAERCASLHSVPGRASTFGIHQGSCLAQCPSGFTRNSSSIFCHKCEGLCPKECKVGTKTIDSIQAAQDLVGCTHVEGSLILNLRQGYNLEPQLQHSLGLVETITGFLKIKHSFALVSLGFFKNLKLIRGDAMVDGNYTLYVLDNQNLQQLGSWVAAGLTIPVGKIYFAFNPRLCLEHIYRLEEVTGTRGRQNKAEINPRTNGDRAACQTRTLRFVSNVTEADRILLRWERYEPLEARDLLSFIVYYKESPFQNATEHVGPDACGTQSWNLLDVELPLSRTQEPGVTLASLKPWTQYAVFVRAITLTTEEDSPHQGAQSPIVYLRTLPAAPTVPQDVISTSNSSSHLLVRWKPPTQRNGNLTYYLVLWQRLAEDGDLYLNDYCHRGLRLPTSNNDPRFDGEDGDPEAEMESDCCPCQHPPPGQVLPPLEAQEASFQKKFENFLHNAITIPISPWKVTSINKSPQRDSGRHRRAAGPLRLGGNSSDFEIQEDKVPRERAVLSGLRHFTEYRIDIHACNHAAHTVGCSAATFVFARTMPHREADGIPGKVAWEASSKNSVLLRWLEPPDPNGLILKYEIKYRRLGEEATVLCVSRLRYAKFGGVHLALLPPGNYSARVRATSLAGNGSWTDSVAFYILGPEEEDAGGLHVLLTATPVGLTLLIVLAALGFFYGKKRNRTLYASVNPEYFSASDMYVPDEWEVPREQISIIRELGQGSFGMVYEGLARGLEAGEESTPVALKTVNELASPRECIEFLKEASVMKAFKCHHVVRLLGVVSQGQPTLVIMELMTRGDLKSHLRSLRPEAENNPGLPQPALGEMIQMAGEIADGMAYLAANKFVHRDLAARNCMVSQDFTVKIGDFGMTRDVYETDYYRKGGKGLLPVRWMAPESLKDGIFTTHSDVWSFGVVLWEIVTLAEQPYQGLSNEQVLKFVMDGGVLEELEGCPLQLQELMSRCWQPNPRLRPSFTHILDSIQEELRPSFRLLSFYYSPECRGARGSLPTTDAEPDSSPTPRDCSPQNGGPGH
UniProt P06239: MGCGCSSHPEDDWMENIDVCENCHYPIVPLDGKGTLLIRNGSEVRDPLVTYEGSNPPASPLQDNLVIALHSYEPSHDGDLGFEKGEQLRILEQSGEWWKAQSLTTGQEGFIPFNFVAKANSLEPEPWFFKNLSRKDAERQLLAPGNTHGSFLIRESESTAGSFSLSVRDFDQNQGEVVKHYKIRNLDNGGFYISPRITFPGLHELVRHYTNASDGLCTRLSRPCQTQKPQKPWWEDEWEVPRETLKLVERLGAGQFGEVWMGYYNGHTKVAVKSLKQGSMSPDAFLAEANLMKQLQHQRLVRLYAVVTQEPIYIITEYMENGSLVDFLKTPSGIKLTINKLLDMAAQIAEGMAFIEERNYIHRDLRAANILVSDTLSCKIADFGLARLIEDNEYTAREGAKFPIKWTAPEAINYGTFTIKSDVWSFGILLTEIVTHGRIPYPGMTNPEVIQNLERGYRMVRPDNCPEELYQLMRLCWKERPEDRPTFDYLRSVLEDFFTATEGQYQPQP
UniProt P53667: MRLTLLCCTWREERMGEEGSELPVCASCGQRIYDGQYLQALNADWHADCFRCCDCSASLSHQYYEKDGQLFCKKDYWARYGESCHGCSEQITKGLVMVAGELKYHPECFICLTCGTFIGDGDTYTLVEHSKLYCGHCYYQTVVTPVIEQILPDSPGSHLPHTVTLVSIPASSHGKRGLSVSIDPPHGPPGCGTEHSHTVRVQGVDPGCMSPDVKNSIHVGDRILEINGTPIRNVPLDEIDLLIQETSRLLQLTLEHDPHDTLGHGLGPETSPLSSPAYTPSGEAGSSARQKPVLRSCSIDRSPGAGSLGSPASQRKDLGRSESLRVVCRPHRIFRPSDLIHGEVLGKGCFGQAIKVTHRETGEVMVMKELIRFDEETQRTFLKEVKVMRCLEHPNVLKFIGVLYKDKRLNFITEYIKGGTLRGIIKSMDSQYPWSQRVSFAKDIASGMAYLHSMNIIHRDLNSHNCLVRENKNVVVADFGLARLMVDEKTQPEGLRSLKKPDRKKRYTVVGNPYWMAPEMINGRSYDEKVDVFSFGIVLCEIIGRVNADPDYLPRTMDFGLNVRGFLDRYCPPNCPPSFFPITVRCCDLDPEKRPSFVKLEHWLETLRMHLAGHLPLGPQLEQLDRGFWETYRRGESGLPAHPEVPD
UniProt P53671: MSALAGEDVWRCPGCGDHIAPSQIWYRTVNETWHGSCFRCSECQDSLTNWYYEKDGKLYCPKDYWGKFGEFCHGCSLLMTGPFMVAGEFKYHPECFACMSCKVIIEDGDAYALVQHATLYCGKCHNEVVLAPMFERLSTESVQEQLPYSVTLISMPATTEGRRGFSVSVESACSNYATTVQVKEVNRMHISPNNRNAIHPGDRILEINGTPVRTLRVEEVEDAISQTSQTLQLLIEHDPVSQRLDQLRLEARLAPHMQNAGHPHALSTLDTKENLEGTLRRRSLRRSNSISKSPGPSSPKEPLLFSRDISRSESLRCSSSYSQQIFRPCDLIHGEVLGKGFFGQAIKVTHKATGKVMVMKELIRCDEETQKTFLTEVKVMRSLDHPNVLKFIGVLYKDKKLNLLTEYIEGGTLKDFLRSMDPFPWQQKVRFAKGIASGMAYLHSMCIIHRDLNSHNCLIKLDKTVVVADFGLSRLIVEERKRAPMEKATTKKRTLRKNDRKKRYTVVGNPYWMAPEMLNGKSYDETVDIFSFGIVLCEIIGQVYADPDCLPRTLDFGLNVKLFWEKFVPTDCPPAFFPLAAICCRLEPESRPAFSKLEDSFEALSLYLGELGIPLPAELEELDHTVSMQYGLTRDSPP
UniProt P07948: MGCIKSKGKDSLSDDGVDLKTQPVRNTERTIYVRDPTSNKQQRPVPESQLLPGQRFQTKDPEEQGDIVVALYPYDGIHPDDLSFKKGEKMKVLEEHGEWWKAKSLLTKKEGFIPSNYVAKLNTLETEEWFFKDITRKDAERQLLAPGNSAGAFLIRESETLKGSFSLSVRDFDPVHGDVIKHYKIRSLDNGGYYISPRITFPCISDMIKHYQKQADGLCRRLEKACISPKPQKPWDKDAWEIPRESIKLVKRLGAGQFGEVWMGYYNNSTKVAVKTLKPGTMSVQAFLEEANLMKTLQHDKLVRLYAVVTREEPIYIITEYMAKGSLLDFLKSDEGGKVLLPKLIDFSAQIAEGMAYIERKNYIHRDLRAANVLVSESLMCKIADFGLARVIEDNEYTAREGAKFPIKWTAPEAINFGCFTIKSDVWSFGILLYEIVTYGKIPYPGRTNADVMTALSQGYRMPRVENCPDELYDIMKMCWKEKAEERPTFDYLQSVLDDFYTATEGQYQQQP

Structure (SMILES) | kinase-Nluc reporter destabilization hit call [1] | kinase-Nluc reporter destabilization hit call [2] | kinase-Nluc reporter destabilization hit call [3] | kinase-Nluc reporter destabilization hit call [4] | kinase-Nluc reporter destabilization hit call [5] | kinase-Nluc reporter destabilization hit call [6] | kinase-Nluc reporter destabilization hit call [7] | kinase-Nluc reporter destabilization hit call [8] | kinase-Nluc reporter destabilization hit call [9] | kinase-Nluc reporter destabilization hit call [10] | kinase-Nluc reporter destabilization hit call [11] | kinase-Nluc reporter destabilization hit call [12] | kinase-Nluc reporter destabilization hit call [13] | kinase-Nluc reporter destabilization hit call [14] | kinase-Nluc reporter destabilization hit call [15] | kinase-Nluc reporter destabilization hit call [16] | kinase-Nluc reporter destabilization hit call [17] | kinase-Nluc reporter destabilization hit call [18] | kinase-Nluc reporter destabilization hit call [19] | kinase-Nluc reporter destabilization hit call [20]
Cc1ccc(F)c(NC(=O)Nc2ccc(-c3cccc4[nH]nc(N)c34)cc2)c1 [Linifanib] (2.5 µM) | inactive: 0 | active: 1 | inactive: 0 | inactive: 0 | inactive: 0 | inactive: 0 | inactive: 0 | inactive: 0 | inactive: 0 | inactive: 0 | inactive: 0 | inactive: 0 | inactive: 0 | inactive: 0 | inactive: 0 | inactive: 0 | active: 1 | inactive: 0 | inactive: 0 | inactive: 0
CCN1CCN(Cc2ccc(C(=O)Nc3ccc(C)c(Oc4ccc5c(c4)CC(=O)N5)c3)cc2C(F)(F)F)CC1 (2.5 µM) | inactive: 0 | inactive: 0 | inactive: 0 | inactive: 0 | inactive: 0 | inactive: 0 | inactive: 0 | inactive: 0 | inactive: 0 | inactive: 0 | inactive: 0 | inactive: 0 | inactive: 0 | inactive: 0 | inactive: 0 | inactive: 0 | inactive: 0 | inactive: 0 | inactive: 0 | inactive: 0
O=C(Nc1ccc(-c2ccnc(Nc3ccc(N4CCOCC4)cc3)n2)cc1)C1CCCN1 (stereo not given) (10 µM) | inactive: 0 | inactive: 0 | inactive: 0 | inactive: 0 | inactive: 0 | inactive: 0 | inactive: 0 | inactive: 0 | inactive: 0 | inactive: 0 | inactive: 0 | inactive: 0 | inactive: 0 | inactive: 0 | inactive: 0 | inactive: 0 | inactive: 0 | inactive: 0 | inactive: 0 | inactive: 0
COCc1c(-c2ccc(NC(=O)Nc3cc(C(F)(F)F)ccc3F)c(F)c2)c2c(N)ncnn2c1CN1CCOCC1 (2.5 µM) | inactive: 0 | inactive: 0 | inactive: 0 | inactive: 0 | inactive: 0 | inactive: 0 | inactive: 0 | inactive: 0 | inactive: 0 | inactive: 0 | inactive: 0 | inactive: 0 | inactive: 0 | inactive: 0 | inactive: 0 | inactive: 0 | inactive: 0 | inactive: 0 | inactive: 0 | inactive: 0
C=CC(=O)N1CCC[C@@H](n2nc(-c3ccc(Oc4ccccc4)cc3)c(C(N)=O)c2N)C1 [Btk inhibitor 2] (10 µM) | inactive: 0 | inactive: 0 | inactive: 0 | inactive: 0 | inactive: 0 | inactive: 0 | inactive: 0 | inactive: 0 | inactive: 0 | inactive: 0 | inactive: 0 | inactive: 0 | inactive: 0 | inactive: 0 | inactive: 0 | inactive: 0 | inactive: 0 | inactive: 0 | inactive: 0 | inactive: 0
COc1cc2ncnc(Nc3ccc(O)cc3)c2cc1OC (10 µM) | inactive: 0 | inactive: 0 | inactive: 0 | inactive: 0 | inactive: 0 | inactive: 0 | inactive: 0 | inactive: 0 | inactive: 0 | inactive: 0 | inactive: 0 | inactive: 0 | inactive: 0 | inactive: 0 | inactive: 0 | inactive: 0 | inactive: 0 | inactive: 0 | inactive: 0 | inactive: 0
CC(=O)N1CCN(c2ccc(OCC3COC(Cn4ccnc4)(c4ccc(Cl)cc4Cl)O3)cc2)CC1 (stereo not given) [Ketoconazole] (2.5 µM) | inactive: 0 | inactive: 0 | inactive: 0 | inactive: 0 | inactive: 0 | inactive: 0 | inactive: 0 | inactive: 0 | inactive: 0 | inactive: 0 | inactive: 0 | inactive: 0 | inactive: 0 | inactive: 0 | inactive: 0 | inactive: 0 | inactive: 0 | inactive: 0 | inactive: 0 | inactive: 0
Cn1c(=O)n(-c2ccc(C(C)(C)C#N)cc2)c2c3cc(-c4cnc5ccccc5c4)ccc3ncc21 [Dactolisib (Tosylate)] (10 µM) | inactive: 0 | inactive: 0 | inactive: 0 | inactive: 0 | inactive: 0 | inactive: 0 | inactive: 0 | inactive: 0 | inactive: 0 | inactive: 0 | inactive: 0 | inactive: 0 | inactive: 0 | inactive: 0 | inactive: 0 | inactive: 0 | inactive: 0 | inactive: 0 | inactive: 0 | inactive: 0
COc1ccc(C=C(C#N)c2cccnc2)cc1OC (10 µM) | inactive: 0 | inactive: 0 | inactive: 0 | inactive: 0 | inactive: 0 | inactive: 0 | inactive: 0 | inactive: 0 | inactive: 0 | inactive: 0 | inactive: 0 | inactive: 0 | inactive: 0 | inactive: 0 | inactive: 0 | inactive: 0 | inactive: 0 | inactive: 0 | inactive: 0 | inactive: 0

Some entries already given, limited to kinase-Nluc reporter destabilization hit call [10] and kinase-Nluc reporter destabilization hit call [6].
Structure (SMILES)	kinase-Nluc reporter destabilization hit call [10]	kinase-Nluc reporter destabilization hit call [6]
Cc1ccc(F)c(NC(=O)Nc2ccc(-c3cccc4[nH]nc(N)c34)cc2)c1 [Linifanib] (2.5 µM)	inactive: 0	inactive: 0
O=C(Nc1ccc(-c2ccnc(Nc3ccc(N4CCOCC4)cc3)n2)cc1)C1CCCN1 (stereo not given) (10 µM)	inactive: 0	inactive: 0

Source: the supplement of paper PMC12823440, “Inhibitors supercharge kinase turnover through native proteolytic circuits” (Nature, 2025)
